These are yes or no findings as the source states them, for the method shown. In cells and extracts the contact can be indirect. A yes stands for co-enrichment or nearness to the bait. Other partners may have been found.

Chains of the proteins cited; added tags and fusions are not shown. Lines headed by an entry give the natural chain unless they say otherwise; changes in a name come on top. A line that says so, or that is headed by a name, gives the form on record, which may keep a tag or linker. Residues count along the entry.
UniProt Q9UBV2, residues 22-794: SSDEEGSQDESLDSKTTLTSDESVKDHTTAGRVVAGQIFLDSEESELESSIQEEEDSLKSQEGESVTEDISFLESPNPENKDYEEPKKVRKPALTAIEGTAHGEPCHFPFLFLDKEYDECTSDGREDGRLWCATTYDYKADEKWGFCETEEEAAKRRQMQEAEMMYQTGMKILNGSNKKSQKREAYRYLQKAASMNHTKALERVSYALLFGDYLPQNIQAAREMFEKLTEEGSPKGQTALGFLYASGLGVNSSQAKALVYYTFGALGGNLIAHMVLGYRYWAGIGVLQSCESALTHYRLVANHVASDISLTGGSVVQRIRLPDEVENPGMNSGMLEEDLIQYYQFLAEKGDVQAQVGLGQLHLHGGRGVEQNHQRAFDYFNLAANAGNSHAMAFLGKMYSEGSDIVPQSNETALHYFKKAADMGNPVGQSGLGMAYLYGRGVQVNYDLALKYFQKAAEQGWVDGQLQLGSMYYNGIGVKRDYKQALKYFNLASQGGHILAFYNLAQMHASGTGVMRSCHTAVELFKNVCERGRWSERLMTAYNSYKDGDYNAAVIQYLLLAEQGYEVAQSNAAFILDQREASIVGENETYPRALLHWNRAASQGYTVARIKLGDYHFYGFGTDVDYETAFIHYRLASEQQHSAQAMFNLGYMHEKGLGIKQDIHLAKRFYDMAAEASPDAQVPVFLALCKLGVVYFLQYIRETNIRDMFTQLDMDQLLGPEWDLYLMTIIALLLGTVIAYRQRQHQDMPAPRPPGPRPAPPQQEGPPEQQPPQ
HRD1 (HMG-CoA reductase degradation 1), endogenous human (human (endogenous in HEK293T)) (Q86TM6, form named): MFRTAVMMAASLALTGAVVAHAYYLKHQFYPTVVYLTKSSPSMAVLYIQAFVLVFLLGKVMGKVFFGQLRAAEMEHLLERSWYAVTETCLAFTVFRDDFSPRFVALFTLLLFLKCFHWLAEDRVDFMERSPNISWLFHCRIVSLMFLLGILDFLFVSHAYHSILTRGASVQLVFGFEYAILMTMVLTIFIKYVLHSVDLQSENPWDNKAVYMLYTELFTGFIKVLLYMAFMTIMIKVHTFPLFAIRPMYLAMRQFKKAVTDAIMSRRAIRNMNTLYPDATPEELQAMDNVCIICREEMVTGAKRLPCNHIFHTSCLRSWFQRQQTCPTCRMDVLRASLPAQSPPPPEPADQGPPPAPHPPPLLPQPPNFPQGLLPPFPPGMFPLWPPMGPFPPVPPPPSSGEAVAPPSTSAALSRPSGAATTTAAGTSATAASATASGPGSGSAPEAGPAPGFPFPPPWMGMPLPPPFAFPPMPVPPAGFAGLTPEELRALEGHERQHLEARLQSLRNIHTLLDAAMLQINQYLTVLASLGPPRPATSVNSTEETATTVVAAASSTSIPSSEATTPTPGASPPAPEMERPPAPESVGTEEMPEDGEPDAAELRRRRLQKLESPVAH

The target in assay [1] is SEL1L (suppressor of lin-12-like), endogenous human (human (endogenous in HEK293T)) (UniProt Q9UBV2). As to the kind of experiment: affinity purification with mass spectrometry; IP of endogenous SEL1L or HRD1 from WT, SEL1L-/- or HRD1-/- HEK293T lysates (NP-40 lysis buffer, protein A agarose), LC-MS, three independent repeats, knock-out cells with IgG as negative control.

Assay [2] concerns the target HRD1 (HMG-CoA reductase degradation 1), endogenous human (human (endogenous in HEK293T)) (UniProt Q86TM6). The description is as above.

B1: DERL2, endogenous human (protein, UniProt Q9GZP9 1-239)
chain: MAYQSLRLEYLQIPPVSRAYTTACVLTTAAVQLELITPFQLYFNPELIFKHFQIWRLITNFLFFGPVGFNFLFNMIFLYRYCRMLEEGSFRGRTADFVFMFLFGGFLMTLFGLFVSLVFLGQAFTIMLVYVWSRRNPYVRMNFFGLLNFQAPFLPWVLMGFSLLLGNSIIVDLLGIAVGHIYFFLEDVFPNQPGGIRILKTPSILKAIFDTPDEDPNYNPLPEERPGGFAWGEGQRLGG
As to B1, the binding result in assay [1] is “binds”.

B2: OS9 (Osteosarcoma amplified 9), endogenous human (protein, UniProt Q13438 26-667)
chain: GGVGSLNLEELSEMRYGIEILPLPVMGGQSQSSDVVIVSSKYKQRYECRLPAGAIHFQREREEETPAYQGPGIPELLSPMRDAPCLLKTKDWWTYEFCYGRHIQQYHMEDSEIKGEVLYLGYYQSAFDWDDETAKASKQHRLKRYHSQTYGNGSKCDLNGRPREAEVRFLCDEGAGISGDYIDRVDEPLSCSYVLTIRTPRLCPHPLLRPPPSAAPQAILCHPSLQPEEYMAYVQRQADSKQYGDKIIEELQDLGPQVWSETKSGVAPQKMAGASPTKDDSKDSDFWKMLNEPEDQAPGGEEVPAEEQDPSPEAADSASGAPNDFQNNVQVKVIRSPADLIRFIEELKGGTKKGKPNIGQEQPVDDAAEVPQREPEKERGDPERQREMEEEEDEDEDEDEDEDERQLLGEFEKELEGILLPSDRDRLRSEVKAGMERELENIIQETEKELDPDGLKKESERDRAMLALTSTLNKLIKRLEEKQSPELVKKHKKKRVVPKKPPPSPQPTEEDPEHRVRVRVTKLRLGGPNQDLTVLEMKRENPQLKQIEGLVKELLEREGLTAAGKIEIKIVRPWAEGTEEGARWLTDEDTRNLKEIFFNILVPGAEEAQKERQRQKELESNYRRVWGSPGGEGTGDLDEFDF
As to B2, in assay [1], the binding result is “binds”.

B3: HERP1, endogenous human (protein, UniProt Q15011 1-391)
chain: MESETEPEPVTLLVKSPNQRHRDLELSGDRGWSVGHLKAHLSRVYPERPRPEDQRLIYSGKLLLDHQCLRDLLPKQEKRHVLHLVCNVKSPSKMPEINAKVAESTEEPAGSNRGQYPEDSSSDGLRQREVLRNLSSPGWENISRPEAAQQAFQGLGPGFSGYTPYGWLQLSWFQQIYARQYYMQYLAATAASGAFVPPPSAQEIPVVSAPAPAPIHNQFPAENQPANQNAAPQVVVNPGANQNLRMNAQGGPIVEEDDEINRDWLDWTYSAATFSVFLSILYFYSSLSRFLMVMGATVVMYLHHVGWFPFRPRPVQNFPNDGPPPDVVNQDPNNNLQEGTDPETEDPNHLPPDRDVLDGEQTSPSFMSTAWLVFKTFFASLLPEGPPAIAN
Regarding B3, the binding entry in assay [2] is recorded as “binds”.

B4: ABCD3, endogenous human (protein, UniProt P28288 1-659)
chain: MAAFSKYLTARNSSLAGAAFLLLCLLHKRRRALGLHGKKSGKPPLQNNEKEGKKERAVVDKVFFSRLIQILKIMVPRTFCKETGYLVLIAVMLVSRTYCDVWMIQNGTLIESGIIGRSRKDFKRYLLNFIAAMPLISLVNNFLKYGLNELKLCFRVRLTKYLYEEYLQAFTYYKMGNLDNRIANPDQLLTQDVEKFCNSVVDLYSNLSKPFLDIVLYIFKLTSAIGAQGPASMMAYLVVSGLFLTRLRRPIGKMTITEQKYEGEYRYVNSRLITNSEEIAFYNGNKREKQTVHSVFRKLVEHLHNFILFRFSMGFIDSIIAKYLATVVGYLVVSRPFLDLSHPRHLKSTHSELLEDYYQSGRMLLRMSQALGRIVLAGREMTRLAGFTARITELMQVLKDLNHGKYERTMVSQQEKGIEGVQVIPLIPGAGEIIIADNIIKFDHVPLATPNGDVLIRDLNFEVRSGANVLICGPNGCGKSSLFRVLGELWPLFGGRLTKPERGKLFYVPQRPYMTLGTLRDQVIYPDGREDQKRKGISDLVLKEYLDNVQLGHILEREGGWDSVQDWMDVLSGGEKQRMAMARLFYHKPQFAILDECTSAVSVDVEGYIYSHCRKVGITLFTVSHRKSLWKHHEYYLHMDGRGNYEFKQITEDTVEFGS
Regarding B4, the binding result in assay [2] was “binds”.

B5: FAM8A1, endogenous human (protein, UniProt Q9UBU6 1-413)
chain: MAEGPEEARGHPPGQDDGGGDHEPVPSLRGPPTTAVPCPRDDPQAEPQAPGRPTAPGLAAAAAADKLEPPRELRKRGEAASGSGAELQEQAGCEAPEAAAPRERPARLSAREYSRQVHEWLWQSYCGYLTWHSGLAAFPAYCSPQPSPQSFPSGGAAVPQAAAPPPPQLGYYNPFYFLSPGAAGPDPRTAAGISTPAPVAGLGPRAPHVQASVRATPVTRVGSAAPSRSPSETGRQAGREYVIPSLAHRFMAEMVDFFILFFIKATIVLSIMHLSGIKDISKFAMHYIIEEIDEDTSMEDLQKMMVVALIYRLLVCFYEIICIWGAGGATPGKFLLGLRVVTCDTSVLIAPSRVLVIPSSNVSITTSTIRALIKNFSIASFFPAFITLLFFQHNRTAYDIVAGTIVVKRNGVR
On to B5, for which the binding entry in assay [2] was “binds”.

B6: UBE2J1, endogenous human (enzyme, UniProt Q9Y385 1-318)
chain: METRYNLKSPAVKRLMKEAAELKDPTDHYHAQPLEDNLFEWHFTVRGPPDSDFDGGVYHGRIVLPPEYPMKPPSIILLTANGRFEVGKKICLSISGHHPETWQPSWSIRTALLAIIGFMPTKGEGAIGSLDYTPEERRALAKKSQDFCCEGCGSAMKDVLLPLKSGSDSSQADQEAKELARQISFKAEVNSSGKTISESDLNHSFSLTDLQDDIPTTFQGATASTSYGLQNSSAASFHQPTQPVAKNTSMSPRQRRAQQQSQRRLSTSPDVIQGHQPRDNHTDHGGSAVLIVILTLALAALIFRRIYLANEYIFDFEL
As to B6, in assay [1], the binding entry was “binds”.

(Values after PMC10873344.)
